The results in this text go back to PubChem BioAssay AID2685 (National Center for Advancing Translational Sciences (NCATS), 2010).

The structures appear in SMILES notation. Some of the results follow. Shown are side measurements of this screen, not its main read-out; they come without a call. The list favours compounds with an active or inconclusive main result. The note in brackets gives the kind of curve behind each potency; many fits are weak.

The test can be described thus: qHTS Assay for Lipid Storage Modulators in Drosophila S3 Cells.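 For cell number change: cells counted by Cell Tracker Red CMTPX staining in the red channel.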 The note with it: BODIPY lipid droplet fluorescence, 18-24 h; for cell number change: measured here: cell count max response, cells fed with added oleic acid. An outline of the steps: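 Drosophila S3 cells got compounds at several concentrations plus oleic acid (400 uM solution). Laser-scanning cytometry with 488 nm excitation read lipid droplets at 500-530 nm and cells at 575-640 nm. Percent activity was relative to 20 uM Triacsin C.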
A general note: qHTS replaces the single test concentration by a dilution series.

Setting [1] is: measured here: cell number channel AC50, cells fed with added oleic acid.
Setting [2] is: measured here: lipid fluorescence (Fed channel) AC50, cells fed with added oleic acid.

For orientation: AC50 means the midpoint of the concentration-response curve, whichever way the signal moves. In the case of `O=C(N/N=C/c1cccc([N+](=O)[O-])c1)c1cnccn1`, the cell number change turned out to be 46.8%. Besides, the AC50 under setting [1] is 29.1 µM [rising, single point].
Turning to `Cc1ccc(S(=O)(=O)Nc2cccc(C(=O)NCc3ccccn3)c2)cc1F`, the cell number change was 28.9%. Also, the AC50 under setting [1] is 1.3 µM [rising, full curve, poor fit]. In addition, the half-maximal activity concentration (AC50) under setting [2] was 3.66 µM [rising, full curve].
As for `CCC(=O)Nc1nnc(Cc2ccccc2)s1`, the cell number change is -2.43%. Besides, the AC50 under setting [2] is 29.1 µM [rising, single point].
On to `Cc1cccnc1NC(=O)c1ccco1`, for which the AC50 under setting [1] is 0.461 µM [falling, single point].
As to `CCOc1ccccc1NC(=O)NC1CCCCCCC1`, the cell number change is -3.76%. Besides, the AC50 under setting [2] was 0.0206 µM [falling, full curve, poor fit].
With `COc1ccccc1OCC(=O)NCCS(=O)(=O)N1CCN(c2ccccc2)CC1`, the cell number change was determined as 36.7%. Further, the AC50 under setting [1] is 29.1 µM [rising, single point].
Turning to `Cc1ccc(OCCC(=O)OCC(=O)N2c3ccccc3CC2C)cc1` (stereo not drawn), the cell number change is -45%. Also, the AC50 under setting [1] is 0.58 µM [falling, full curve]. Under setting [2], the AC50 is 29.1 µM [falling, single point].
`COc1ccccc1N1CCN(S(=O)(=O)c2cc(-c3cc(C)no3)ccc2C(C)C)CC1`: the cell number change amounted to 24.5%. For the same compound, under setting [2], the AC50 is 29.1 µM [rising, single point].
Consider `CCN(CC(=O)Nc1ccc(NC(C)=O)cc1)C(=O)COc1ccc2ccccc2c1`, for which the AC50 under setting [1] is 4.61 µM [rising, partial curve, poor fit].
Regarding `NC(=NCCc1c[nH]c2ccccc12)NC(=O)c1ccc(F)cc1`, the cell number change was determined as 9.16%. Also, the half-maximal activity concentration (AC50) under setting [2] was 0.651 µM [rising, single point].
Consider `N#CCCn1nnc2ccccc21`, for which the cell number change came out at 22.4%. The AC50 under setting [1] is 0.461 µM [rising, full curve]. Besides, the AC50 under setting [2] was 0.731 µM [rising, single point].
Turning to `COc1cc(/C=C/C(=O)Nc2nc3ccc(S(=O)(=O)N(C)C)cc3s2)cc(OC)c1OC`, the cell number change worked out at 21.2%. In addition, the AC50 under setting [2] is 0.92 µM [rising, full curve, poor fit].
For the compound `O=C(Nc1ccccc1Cl)Oc1ccc2ccccc2c1`, the cell number change was determined as 12.4%.
With `C#CCNc1nc(CC)nc2c1nnn2Cc1ccccc1F`, the cell number change was -13.6%. Also, the AC50 under setting [2] is 0.231 µM [rising, full curve, poor fit].
Consider `CCOC(=O)N1CCC(NC(=O)CN(c2ccc(C(C)C)cc2)S(=O)(=O)c2c(C)nn(C)c2C)CC1`, for which the AC50 under setting [1] is 0.92 µM [falling, full curve, poor fit].
Take `CCn1c(SCC(=O)Nc2nc(C)c(C)s2)nnc1-c1cccnc1`: the AC50 under setting [1] was 2.59 µM [rising, partial curve] and the AC50 under setting [2] is 0.259 µM [rising, partial curve, poor fit].
Take `c1ccc(Cn2nnnc2C(c2cccnc2)N2CCN(c3ccccc3)CC2)cc1` (stereo not drawn): the cell number change came to 2.54%. Moreover, the half-maximal activity concentration (AC50) under setting [1] was 0.259 µM [rising, full curve]. Besides, under setting [2], the AC50 was 29.1 µM [falling, single point].
As to `C/C(=C\C(=O)c1ccc(Cl)cc1)NCc1ccc2c(c1)OCO2`, the cell number change is -16.6%. Further, the AC50 under setting [2] was 0.0231 µM [falling, full curve].
For `O=S(=O)(CCc1nc2ccccc2o1)c1ccc(Cl)c(Cl)c1`, the cell number change was -18.5%. In addition, the AC50 under setting [1] is 0.82 µM [falling, full curve, poor fit].
Turning to `O=C(NCC(c1cccnc1)N1CCOCC1)c1cccc(Cl)c1` (stereo not drawn), the cell number change was -13.4%.
Regarding `CN1C(=O)S/C(=C/c2cccnc2)C1=O`, the cell number change amounted to 67.1%. Further, the AC50 under setting [1] is 20.6 µM [rising, single point].
For `COc1ccc(NC(=S)NC2CCCC2)c(OC)c1`, the cell number change worked out at 32.4%. Further, the AC50 under setting [1] was 4.61 µM [rising, full curve, poor fit].
Take `CCOC(=O)N1CCN(Cc2nc3ccc([N+](=O)[O-])cc3c(=O)n2-c2ccc(OC)cc2OC)CC1`: the cell number change came to 21.4%. Also, the AC50 under setting [2] was 1.03 µM [rising, partial curve].
`Cc1nc2sc(C(c3ccc(Br)cc3)N3CC(C)OC(C)C3)c(O)n2n1` (stereo not drawn): the cell number change is -196%.
In the case of `CCC1Nc2ncnc(N3CCCCC3)c2N(Cc2ccc(Br)cc2)C1=O` (stereo not drawn), the cell number change came out at 14.9%. In addition, under setting [2], the AC50 was 29.1 µM [rising, single point].
Consider `COc1cc(Cl)c(C)cc1NC(=O)c1ccccc1NC(=O)CN1CCOCC1`, for which the cell number change was found to be 38.2%. The AC50 under setting [1] was 5.8 µM [rising, full curve, poor fit].
Turning to `Cc1noc(C)c1C(=O)N(CC(=O)Nc1ccccc1Br)Cc1ccco1`, the cell number change was determined as 7.36%. The AC50 under setting [2] was 13 µM [falling, partial curve].
In the case of `Cc1cc(C)n2nnnc2n1`, the cell number change was -42.9%. The AC50 under setting [1] is 18.4 µM [falling, single point].
For `Cc1cc2c(C)nc(Cc3ccccc3)nc2o1`, the AC50 under setting [1] is 6.51 µM [falling, single point].
Take `CCc1ccccc1NC(=O)NC1CCCCCCC1`: the cell number change is -2.02%. Further, under setting [2], the AC50 was 0.00461 µM [rising, full curve, poor fit].
Take `CC(=O)Nc1ccccc1OCC(=O)c1cc(C)n(Cc2cccs2)c1C`: the cell number change came out at 17.6%. For the same compound, the AC50 under setting [2] is 1.3 µM [falling, partial curve, poor fit].
As to `CC(O)[C@H]1CNCCN1CCc1cccc(F)c1` (stereo partly drawn), the cell number change turned out to be 20.3%. In addition, the AC50 under setting [1] is 0.461 µM [rising, full curve, poor fit]. Moreover, the AC50 under setting [2] was 5.8 µM [rising, full curve].
For `COc1ccc(NC(=O)[C@@H]2CCCN2C(=O)c2cccs2)cc1S(=O)(=O)N1CCCCC1`, the cell number change was -22.3%. Also, under setting [2], the AC50 was 2.31 µM [rising, single point].
Take `CC1(NC(=O)CSc2nnc(-c3c[nH]c4ccccc34)n2C2CC2)CCS(=O)(=O)C1` (stereo not drawn): the cell number change is -8.55%. The AC50 under setting [2] is 5.8 µM [rising, single point].
On to `CCOC(=O)CSc1nnc(NC(=O)c2ccco2)s1`, for which the cell number change came to 24.5%.
In the case of `COC(=O)c1cc(S(=O)(=O)N2CCN(c3cccc(Cl)c3)CC2)c[nH]1`, the cell number change is 14.1%. The AC50 under setting [2] was 0.82 µM [falling, full curve, poor fit].
Regarding `CCCCCn1c2nc3ccccc3nc2c2c(=O)n(CC3CCCO3)c(C)nc21` (stereo not drawn), the cell number change is 12.8%. Further, under setting [2], the AC50 is 29.1 µM [falling, single point].
On to `Cc1c(NC(=O)C(C)Sc2ncnc3ccccc23)c(=O)n(-c2ccccc2)n1C` (stereo not drawn), for which the cell number change amounted to 32.5%. Besides, the AC50 under setting [1] is 0.231 µM [rising, full curve].
For the compound `CCOC(=O)c1cnn(-c2ncnc3c2oc2ccccc23)c1N`, the cell number change turned out to be 31.8%. Besides, the AC50 under setting [1] was 0.366 µM [rising, full curve, poor fit]. Also, the concentration at half-maximal activity (AC50) under setting [2] is 2.31 µM [rising, partial curve].
On to `CC(C)C(c1nnnn1C1CCCCC1)N1CCOCC1` (stereo not drawn), for which the cell number change was -1.82%. In addition, the concentration at half-maximal activity (AC50) under setting [2] was 8.2 µM [falling, partial curve, poor fit].
Consider `C=CCOc1ccc(Br)cc1CNCC`, for which the cell number change was found to be 14.7%. In addition, under setting [2], the AC50 is 29.1 µM [rising, single point].
Consider `Cc1ccc(NC(=S)N(Cc2cccs2)Cc2cc3cc(C)ccc3[nH]c2=O)cc1`, for which the cell number change was -5.14%. The concentration at half-maximal activity (AC50) under setting [2] is 0.651 µM [rising, full curve].
As to `Cc1ccc(S(=O)(=O)N2CCOCC2)cc1NC(=O)c1cccc(S(=O)(=O)N2CCCC2)c1`, the cell number change was 32%.
As for `Cc1cccc(NC(=S)NNC(=O)c2csc3c2CCC(C)C3)c1` (stereo not drawn), the cell number change turned out to be 9.22%.
For `Cc1cnc(C(=O)OC(C(=O)c2ccccc2)c2ccccc2)cn1` (stereo not drawn), the cell number change is -33.2%. Moreover, the AC50 under setting [2] was 32.6 µM [falling, single point].
Turning to `CCOc1ccc(NC(=O)CN2CCN(CC(=O)Nc3ccc(N(C)C)cc3)CC2)cc1`, the AC50 under setting [1] was 2.91 µM [rising, partial curve].
For `COC(=O)c1sc(NC(=O)CSc2nnnn2-c2cccc(OC)c2)nc1C`, the cell number change is -15.5%. Also, under setting [1], the AC50 was 6.51 µM [falling, single point].
Take `CCOc1ccc(NC(=O)CN2C(=O)NC(C)(c3ccc(OC(F)F)cc3)C2=O)cc1` (stereo not drawn): the cell number change was -5.86%. Moreover, the AC50 under setting [2] is 0.58 µM [falling, single point].
In the case of `CN(C)/C=N/C(=S)Nc1ccc(Cl)c(Cl)c1`, the cell number change was determined as 32.7%. The AC50 under setting [1] is 9.2 µM [rising, partial curve].
As for `CSc1ccccc1OCc1cc(C(=O)NC(C)CCn2cccn2)no1` (stereo not drawn), the cell number change is 7.8%. Further, under setting [2], the AC50 is 29.1 µM [rising, single point].
With `Clc1ccc2c(N/N=C/c3cccc(Br)c3)ccnc2c1`, the cell number change is -93.3%. For the same compound, the AC50 under setting [1] was 29.1 µM [falling, single point].
As for `O=c1[nH]c2ccc(NS(=O)(=O)c3ccc(F)c(Cl)c3)cc2[nH]1`, the cell number change amounted to 15.3%. Besides, the AC50 under setting [2] is 11.6 µM [falling, single point].
For the compound `Cc1cccc(NC(=O)C23CCC(C)(/C(=N/O)C2)C3(C)C)c1` (stereo not drawn), the cell number change was found to be 2.76%. The AC50 under setting [1] is 0.116 µM [falling, full curve, poor fit]. The AC50 under setting [2] is 6.51 µM [falling, single point].
Take `O=C(COc1nc2ccccc2nc1N1CCOCC1)Nc1ccc(S(=O)(=O)N2CCCC2)cc1`: the cell number change was -46.6%. Under setting [1], the AC50 was 14.6 µM [falling, partial curve].
With `COc1ccccc1N1CCN(Cc2cc(=O)c(OCC#N)co2)CC1`, the cell number change came out at 6.8%. Also, the AC50 under setting [2] is 29.1 µM [rising, single point].
As for `CCOC(=O)C1(Cc2cccc(OC)c2)CCN(Cc2ccc(OC)c(OC)c2)CC1`, the cell number change was -0.745%. The AC50 under setting [1] was 0.731 µM [falling, full curve]. Further, the concentration at half-maximal activity (AC50) under setting [2] is 0.58 µM [falling, full curve].
Take `COc1ccc(C[C@H]2CN3C(=NC[C@@H]3Cc3ccc(O)cc3)N2C[C@H](C)NC(=O)CCC2CCCCC2)cc1`: the cell number change was 1.11%. Also, the AC50 under setting [2] is 25.9 µM [rising, single point].
Regarding `CCOCCCn1c(=NC(=O)c2ccc(OC)c(OC)c2)c(C#N)cc2c(=O)n3cccc(C)c3nc21`, the cell number change turned out to be 22.6%. Under setting [2], the AC50 was 1.64 µM [rising, partial curve].
As to `c1ccc2sc(SN3CCOCC3)nc2c1`, the cell number change stood at 2.21%. The AC50 under setting [1] is 5.17 µM [falling, single point].
Turning to `O=C(Nc1ccc(-c2nnc3n2CCCCC3)cc1)c1ccco1`, the cell number change amounted to 28.9%. Under setting [2], the concentration at half-maximal activity (AC50) is 29.1 µM [rising, single point].
Turning to `CC1CN(S(=O)(=O)c2ccc(-c3nc4ccccc4s3)cc2)CC(C)O1` (stereo not drawn), the AC50 under setting [1] is 0.58 µM [rising, partial curve].
